The exact form of at least one protein or probe is not confirmed.
Test system: Athb-12 (full-length, aa 1-235) (Arabidopsis thaliana)
Assay: EMSA
Conditions: strong binding; 25 mM HEPES pH 7.6, 1 mM MgCl2, room temp; no binding with translation lacking RNA; protein translated in vitro; label: 32P 5' end

TCAATTAATTGA (double strand) [EN (Engrailed consensus site)]
binding result: binds
